Reference: patent US20050089495A1, “Transdermal transport of compounds” (priority 2001, published 2005)
Structures can show the parent of a compound that is named as a salt. Some results were stated once for a whole list of compounds, not compound by compound.

Tested on: rats
Assay: Efficacy of atropine phosphate compared to atropine sulfate: heart rate after intravenous administration
Format: in vivo
Conditions: IV 2 mg/kg
Protocol: The efficacy of atropine phosphate when compared to atropine sulfate was investigated in this example.
Atropine sulfate and atropine phosphate formulated in phosphate buffer and given intravenously (IV) each to two rats at 2 mg/kg resulted similar increases in heart rates.
For example, the baseline heart rate of a rat was approx. 350 bpm and increased to 450 bpm within 15 minutes after administration of atropine (either atropine phosphate or atropine sulfate). Approximately two hours later, normal heart rates were restored. This is regarded as a significant change in pulse rate.

`CN1[C@@H]2CC[C@H]1C[C@@H](OC(=O)C(CO)c1ccccc1)C2` (stereo partly shown) [atropine sulfate, reference compound] was tested, and the “time to the increased heart rate” value was no more than 15 min.
